Measurements reported in PubChem BioAssay AID1259405 (NCATS, 2018)
Shown is one part, drawn at random, of about 50,000 reagents. About 4,000 of all reagents (8%) count as active. 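Mouse siRNA library applied to hamster cells; one well for each siRNA.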 Unmarked entries are inactive. The numbers tell different reagents against one gene apart.

Test: 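Mouse-designed siRNAs used to find CHO productivity engineering targets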 (primary screen)
Cells: Chinese hamster CHO-K1 ovary cells with stable secreted eGFP expression
Reagents: single siRNA against mouse genes, 0.8 pmol siRNA per well (2 µl of 400 nM stock)
Duration: 3 days
Detection: 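Per-well intracellular GFP measured by laser scanning cytometry, plus viability from ATP luminescence, each relative to plate median of non-targeting control wells, in %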
Scale: GFP, % of control: higher = more GFP per well, higher productivity; viability (ATP), % of control: higher = more viable cells (more ATP)
Active means: 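a knock-down is called active if GFP reaches 120% or more of non-targeting control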

| target gene | reagent | GFP, % of control | viability (ATP), % of control |
| --- | --- | --- | --- |
| Or8h9 (olfactory receptor family 8 subfamily H member 9) | 1 | 80.1 | 38.4 |
| Or8h9 (olfactory receptor family 8 subfamily H member 9) | 2 | 46.9 | 51.9 |
| Or8h9 (olfactory receptor family 8 subfamily H member 9) | 3 | 45.4 | 58.8 |
| Rnf130 (ring finger protein 130) | 1 | 72.8 | 61.6 |
| Rnf130 (ring finger protein 130) | 2 | 102 | 95.1 |
| Rnf130 (ring finger protein 130) | 3 | 0.0329 | 124 |
| Vmn2r123 (vomeronasal 2, receptor 123) | 1 | 109 | 61.1 |
| Vmn2r123 (vomeronasal 2, receptor 123) | 2 | 85.8 | 96.7 |
| Vmn2r123 (vomeronasal 2, receptor 123) | 3 | 80.1 | 76.5 |
| Or1j16 (olfactory receptor family 1 subfamily J member 16) | 1 | 80.1 | 63.1 |
| Or1j16 (olfactory receptor family 1 subfamily J member 16) | 2 | 97.5 | 82.1 |
| Or1j16 (olfactory receptor family 1 subfamily J member 16) | 3 | 54.6 | 50.1 |
| Uba2 (ubiquitin-like modifier activating enzyme 2) | 1 | 59.6 | 57.6 |
| Uba2 (ubiquitin-like modifier activating enzyme 2) | 2 | 56.6 | 46.6 |
| Uba2 (ubiquitin-like modifier activating enzyme 2) | 3 | 109 | 109 |
| Slc19a2 | 1 | 118 | 110 |
| Slc19a2 | 2 | 68.5 | 64 |
| Slc19a2 | 3 | 88 | 102 |
| Adprm (ADP-ribose/CDP-alcohol diphosphatase, manganese dependent) | 1 | 72.9 | 63.6 |
| Adprm (ADP-ribose/CDP-alcohol diphosphatase, manganese dependent) | 2 | 93.7 | 65.3 |
| Adprm (ADP-ribose/CDP-alcohol diphosphatase, manganese dependent) | 3 | 71.3 | 51.7 |
| St6gal2 (beta galactoside alpha 2,6 sialyltransferase 2) | 1 | 64.8 | 62.3 |
| St6gal2 (beta galactoside alpha 2,6 sialyltransferase 2) | 2 | 98.3 | 91.2 |
| St6gal2 (beta galactoside alpha 2,6 sialyltransferase 2) | 3 | 93.7 | 75.7 |
| Nol11 (nucleolar protein 11) | 1 | 65.1 | 76.1 |
| Nol11 (nucleolar protein 11) | 2 | 27.7 | 49.5 |
| Nol11 (nucleolar protein 11) | 3 | 113 | 68.2 |
| A2m (alpha-2-macroglobulin) | 1 | 96.5 | 115 |
| A2m (alpha-2-macroglobulin) | 2 | 78.2 | 67.4 |
| D930020B18Rik (RIKEN cDNA D930020B18 gene) | 1 | 58.8 | 60.9 |
| D930020B18Rik (RIKEN cDNA D930020B18 gene) | 2 | 84.8 | 68 |
| D930020B18Rik (RIKEN cDNA D930020B18 gene) | 3 | 80.7 | 85.4 |
| Tmc3 (transmembrane channel-like gene family 3) | 1 | 71.8 | 93.6 |
| Tmc3 (transmembrane channel-like gene family 3) | 2 | 50.4 | 64.4 |
| Tmc3 (transmembrane channel-like gene family 3) | 3 | 79.9 | 92.1 |
| Tnf (tumor necrosis factor) | 1 | 0 | 123 |
| Tnf (tumor necrosis factor) | 2 | 69 | 76 |
| Mrpl23 (mitochondrial ribosomal protein L23) | 1 | 27.3 | 24.6 |
| Mrpl23 (mitochondrial ribosomal protein L23) | 2 | 48.1 | 31.6 |
| Mrpl23 (mitochondrial ribosomal protein L23) | 3 | 107 | 49.3 |
| Mns1 (meiosis-specific nuclear structural protein 1) | 1 | 51.3 | 38 |
| Mns1 (meiosis-specific nuclear structural protein 1) | 2 | 78.3 | 55.8 |
| Mns1 (meiosis-specific nuclear structural protein 1) | 3 | 60.8 | 52.6 |
| S100b (S100 protein, beta polypeptide, neural) | 1 | 53.4 | 75.6 |
| S100b (S100 protein, beta polypeptide, neural) | 2 | 85.7 | 83.1 |
| Il31ra (interleukin 31 receptor A) | 1 | 62.2 | 61.5 |
| Il31ra (interleukin 31 receptor A) | 2 | 71.6 | 59.8 |
| Il31ra (interleukin 31 receptor A) | 3 | 106 | 99.3 |
| Or13a28 (olfactory receptor family 13 subfamily A member 28) | 1 | 114 | 35 |
| Or13a28 (olfactory receptor family 13 subfamily A member 28) | 2 | 66.3 | 70.1 |
| Or13a28 (olfactory receptor family 13 subfamily A member 28) | 3 | 32.9 | 47.4 |
| Tbl1xr1 (Tbl1x/y related 1) | 1 | 55.7 | 39.1 |
| Tbl1xr1 (Tbl1x/y related 1) | 2 | 100 | 79 |
| Tbl1xr1 (Tbl1x/y related 1) | 3 | 93.8 | 122 |
| Or2h2 (olfactory receptor family 2 subfamily H member 2) | 1 | 56.9 | 64.5 |
| Or2h2 (olfactory receptor family 2 subfamily H member 2) | 2 | 24.8 | 46.8 |
| Or2h2 (olfactory receptor family 2 subfamily H member 2) | 3 | 89.4 | 95 |

Ordered by “viability (ATP), % of control” (descending): some entries from above
| target gene | reagent | GFP, % of control | viability (ATP), % of control |
| --- | --- | --- | --- |
| Vmn2r123 (vomeronasal 2, receptor 123) | 2 | 85.8 | 96.7 |
| Vmn2r123 (vomeronasal 2, receptor 123) | 3 | 80.1 | 76.5 |
| Vmn2r123 (vomeronasal 2, receptor 123) | 1 | 109 | 61.1 |
